Results are given in words; binding and its absence hold for the method and conditions named. In cells and extracts the contact can be indirect. These calls come from enrichment with a bait or labelling near it, and not all partners need be listed.
Biological target: FLAG-tagged D2R construct with the biotin ligase acceptor peptide insertion into the 3rd cytoplasmic loop (D2R-AP) (human) (UniProt P14416)
Assay: proximity labelling; in-cell proximity biotin transfer: D2R-AP coexpressed with a BirA fusion in HEK293 cells in biotin-free medium; 10 µM biotin for 2 min at 25°C on intact cells; lysis in cold 2% TX100, soluble and insoluble fractions blotted with streptavidin-HRP

Sequences of proteins named here, by UniProt entry; tags and fusion partners are left off. A change or cut given only in a name is not applied to a line headed by its entry. Residues count along the entry.
UniProt P14416: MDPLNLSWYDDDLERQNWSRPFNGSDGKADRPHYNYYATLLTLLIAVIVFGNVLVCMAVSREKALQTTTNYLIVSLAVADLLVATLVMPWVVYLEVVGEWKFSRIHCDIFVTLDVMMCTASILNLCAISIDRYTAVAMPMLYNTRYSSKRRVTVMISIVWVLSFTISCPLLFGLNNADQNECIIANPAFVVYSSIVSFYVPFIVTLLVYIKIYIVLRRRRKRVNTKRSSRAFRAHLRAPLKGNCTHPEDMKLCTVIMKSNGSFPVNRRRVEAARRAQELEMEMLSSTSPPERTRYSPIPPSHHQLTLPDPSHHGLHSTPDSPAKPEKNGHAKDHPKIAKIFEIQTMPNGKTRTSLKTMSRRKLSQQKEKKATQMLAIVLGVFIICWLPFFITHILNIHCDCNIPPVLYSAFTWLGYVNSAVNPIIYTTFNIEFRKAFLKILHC
UniProt O14775, residues 43-395: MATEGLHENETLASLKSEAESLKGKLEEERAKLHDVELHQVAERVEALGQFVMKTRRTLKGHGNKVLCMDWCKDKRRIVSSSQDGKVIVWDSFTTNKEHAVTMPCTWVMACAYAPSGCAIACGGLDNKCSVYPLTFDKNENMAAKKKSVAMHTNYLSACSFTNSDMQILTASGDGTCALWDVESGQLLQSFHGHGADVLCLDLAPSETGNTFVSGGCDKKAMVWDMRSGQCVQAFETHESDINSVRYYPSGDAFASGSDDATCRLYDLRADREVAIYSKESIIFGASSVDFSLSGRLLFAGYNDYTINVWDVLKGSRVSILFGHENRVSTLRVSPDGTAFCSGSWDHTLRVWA

- binding: binds
Sequence: G protein beta 5-biotin ligase fusion (Gβ5-BL) (from UniProt O14775-2 1-353)
